Some of the results follow. Small differences around the control level are noise.
Compound: CN[C@@H]1C[C@H]2O[C@@](C)([C@@H]1OC)n1c3ccccc3c3c4c(c5c6ccccc6n2c5c31)C(=O)NC4 [staurosporine]
Assay: log2 fold change of tryptic peptide abundance, ligand vs vehicle (limited proteolysis) (log2 ratio); higher = more trypsin-susceptible (destabilized)
Conditions: ligand concentration: 20 uM; sample: K562 cleared lysate; digestion: 4 min, 22 C (HT-PELSA RT4min, Orbitrap Astral)

By UniProt entry, the sequences of proteins in these tests, tags left out. Where a name states a change or a piece, a line headed by the entry shows the natural chain unless it says otherwise.
UniProt Q9P203: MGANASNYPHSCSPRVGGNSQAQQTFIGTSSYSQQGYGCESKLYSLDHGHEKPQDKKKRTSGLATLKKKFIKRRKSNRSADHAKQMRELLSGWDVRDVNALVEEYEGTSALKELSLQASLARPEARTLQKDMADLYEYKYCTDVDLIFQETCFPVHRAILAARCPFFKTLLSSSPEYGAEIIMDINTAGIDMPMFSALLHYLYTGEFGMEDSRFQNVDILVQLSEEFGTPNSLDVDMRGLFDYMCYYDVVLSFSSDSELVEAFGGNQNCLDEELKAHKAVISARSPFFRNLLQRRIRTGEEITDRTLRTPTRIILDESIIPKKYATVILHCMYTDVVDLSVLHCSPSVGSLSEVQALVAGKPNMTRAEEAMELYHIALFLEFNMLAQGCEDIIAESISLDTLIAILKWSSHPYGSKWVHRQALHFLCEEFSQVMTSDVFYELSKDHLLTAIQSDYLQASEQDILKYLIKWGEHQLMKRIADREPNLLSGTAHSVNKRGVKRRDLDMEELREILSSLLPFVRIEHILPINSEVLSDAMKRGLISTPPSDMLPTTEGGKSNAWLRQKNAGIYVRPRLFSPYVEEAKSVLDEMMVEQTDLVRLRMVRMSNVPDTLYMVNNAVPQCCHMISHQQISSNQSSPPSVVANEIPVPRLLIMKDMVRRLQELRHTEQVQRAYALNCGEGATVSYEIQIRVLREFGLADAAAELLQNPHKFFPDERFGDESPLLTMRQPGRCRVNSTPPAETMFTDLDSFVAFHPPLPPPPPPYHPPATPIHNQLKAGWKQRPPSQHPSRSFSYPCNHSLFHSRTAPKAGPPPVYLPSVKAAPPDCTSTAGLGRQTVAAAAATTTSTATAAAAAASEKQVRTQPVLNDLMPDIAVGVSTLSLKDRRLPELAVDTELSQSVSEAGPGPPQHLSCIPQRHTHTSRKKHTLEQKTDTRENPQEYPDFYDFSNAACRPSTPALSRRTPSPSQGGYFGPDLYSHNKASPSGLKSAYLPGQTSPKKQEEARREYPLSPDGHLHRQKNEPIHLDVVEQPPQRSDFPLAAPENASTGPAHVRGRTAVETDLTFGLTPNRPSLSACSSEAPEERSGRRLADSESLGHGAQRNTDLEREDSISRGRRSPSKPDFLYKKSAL
UniProt Q9UHB4: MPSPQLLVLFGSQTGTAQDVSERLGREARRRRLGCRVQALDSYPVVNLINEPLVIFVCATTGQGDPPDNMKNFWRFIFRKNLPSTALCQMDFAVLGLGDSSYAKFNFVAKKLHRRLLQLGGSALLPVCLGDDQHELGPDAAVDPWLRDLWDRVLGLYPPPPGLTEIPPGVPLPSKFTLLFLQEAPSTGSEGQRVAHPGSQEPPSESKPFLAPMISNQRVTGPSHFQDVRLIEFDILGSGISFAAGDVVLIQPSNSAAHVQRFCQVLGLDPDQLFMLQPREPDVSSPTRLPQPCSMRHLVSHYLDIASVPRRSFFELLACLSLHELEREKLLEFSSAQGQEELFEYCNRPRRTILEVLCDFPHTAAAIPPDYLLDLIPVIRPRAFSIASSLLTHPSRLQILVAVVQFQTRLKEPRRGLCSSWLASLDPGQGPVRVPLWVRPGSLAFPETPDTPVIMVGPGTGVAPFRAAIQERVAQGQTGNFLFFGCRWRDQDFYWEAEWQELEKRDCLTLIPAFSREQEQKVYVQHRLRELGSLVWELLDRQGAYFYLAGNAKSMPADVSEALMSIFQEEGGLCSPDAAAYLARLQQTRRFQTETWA
UniProt Q9P0P0: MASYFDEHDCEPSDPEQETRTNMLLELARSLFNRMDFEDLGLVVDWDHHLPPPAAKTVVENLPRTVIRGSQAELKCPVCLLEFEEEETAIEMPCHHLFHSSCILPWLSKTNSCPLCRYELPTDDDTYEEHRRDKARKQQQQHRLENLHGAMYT
UniProt Q9UID3: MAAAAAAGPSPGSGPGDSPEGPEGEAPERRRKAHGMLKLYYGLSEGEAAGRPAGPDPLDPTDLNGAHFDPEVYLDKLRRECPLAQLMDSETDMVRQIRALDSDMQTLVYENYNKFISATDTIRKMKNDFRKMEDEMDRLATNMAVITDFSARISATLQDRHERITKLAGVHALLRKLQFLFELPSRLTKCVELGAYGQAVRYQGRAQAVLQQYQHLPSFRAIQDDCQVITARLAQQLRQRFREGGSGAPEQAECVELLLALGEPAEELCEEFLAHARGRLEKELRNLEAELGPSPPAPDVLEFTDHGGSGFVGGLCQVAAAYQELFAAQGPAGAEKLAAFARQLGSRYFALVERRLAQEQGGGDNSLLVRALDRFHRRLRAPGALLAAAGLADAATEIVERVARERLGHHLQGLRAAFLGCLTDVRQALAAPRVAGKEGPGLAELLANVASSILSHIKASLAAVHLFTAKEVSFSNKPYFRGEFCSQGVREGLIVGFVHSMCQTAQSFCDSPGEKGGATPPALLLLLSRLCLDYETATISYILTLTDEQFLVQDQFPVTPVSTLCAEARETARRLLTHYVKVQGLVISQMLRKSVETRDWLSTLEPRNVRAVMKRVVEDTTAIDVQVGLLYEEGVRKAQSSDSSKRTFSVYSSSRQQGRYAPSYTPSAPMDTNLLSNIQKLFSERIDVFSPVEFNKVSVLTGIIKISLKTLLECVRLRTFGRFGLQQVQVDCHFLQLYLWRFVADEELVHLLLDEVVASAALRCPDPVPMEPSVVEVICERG
UniProt Q9P215: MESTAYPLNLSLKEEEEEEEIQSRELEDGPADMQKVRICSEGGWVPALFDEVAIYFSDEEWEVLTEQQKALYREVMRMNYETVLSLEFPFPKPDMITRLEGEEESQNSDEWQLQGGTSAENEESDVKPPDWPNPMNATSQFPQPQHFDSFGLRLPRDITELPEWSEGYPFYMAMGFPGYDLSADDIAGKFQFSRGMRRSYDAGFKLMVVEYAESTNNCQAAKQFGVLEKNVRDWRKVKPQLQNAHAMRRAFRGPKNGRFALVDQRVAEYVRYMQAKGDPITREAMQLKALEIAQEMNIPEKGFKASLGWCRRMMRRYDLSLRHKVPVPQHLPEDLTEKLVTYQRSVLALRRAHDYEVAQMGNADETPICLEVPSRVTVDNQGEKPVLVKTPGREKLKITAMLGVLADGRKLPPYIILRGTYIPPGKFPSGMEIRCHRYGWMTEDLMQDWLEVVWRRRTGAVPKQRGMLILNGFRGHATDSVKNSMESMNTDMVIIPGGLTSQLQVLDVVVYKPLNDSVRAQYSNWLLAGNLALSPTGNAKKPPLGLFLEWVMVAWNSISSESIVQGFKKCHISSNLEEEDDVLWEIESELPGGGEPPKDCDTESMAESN
UniProt Q9UJT0: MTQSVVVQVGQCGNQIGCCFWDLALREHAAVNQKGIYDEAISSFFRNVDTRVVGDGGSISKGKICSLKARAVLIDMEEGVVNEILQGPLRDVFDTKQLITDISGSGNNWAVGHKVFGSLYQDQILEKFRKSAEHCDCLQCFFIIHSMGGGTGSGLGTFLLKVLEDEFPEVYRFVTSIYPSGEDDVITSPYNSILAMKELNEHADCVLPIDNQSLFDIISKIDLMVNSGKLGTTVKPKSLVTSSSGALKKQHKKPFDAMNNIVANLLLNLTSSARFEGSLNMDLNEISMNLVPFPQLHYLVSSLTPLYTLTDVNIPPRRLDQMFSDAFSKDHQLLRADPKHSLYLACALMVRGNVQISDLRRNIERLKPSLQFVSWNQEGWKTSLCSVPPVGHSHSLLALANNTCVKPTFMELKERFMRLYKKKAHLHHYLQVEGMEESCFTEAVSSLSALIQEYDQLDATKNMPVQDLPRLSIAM
UniProt Q9UHH9: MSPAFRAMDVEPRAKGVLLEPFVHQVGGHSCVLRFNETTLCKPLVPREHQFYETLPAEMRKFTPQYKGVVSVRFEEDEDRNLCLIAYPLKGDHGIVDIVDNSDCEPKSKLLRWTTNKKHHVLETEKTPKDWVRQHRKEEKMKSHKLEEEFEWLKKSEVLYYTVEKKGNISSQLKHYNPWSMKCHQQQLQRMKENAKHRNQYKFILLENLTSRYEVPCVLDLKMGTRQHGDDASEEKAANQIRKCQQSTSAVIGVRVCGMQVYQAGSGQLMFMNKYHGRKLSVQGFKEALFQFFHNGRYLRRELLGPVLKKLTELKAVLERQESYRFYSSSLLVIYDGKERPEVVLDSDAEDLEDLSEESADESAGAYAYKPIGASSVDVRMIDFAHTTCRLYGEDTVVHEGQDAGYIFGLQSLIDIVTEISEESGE
UniProt Q9UJK0: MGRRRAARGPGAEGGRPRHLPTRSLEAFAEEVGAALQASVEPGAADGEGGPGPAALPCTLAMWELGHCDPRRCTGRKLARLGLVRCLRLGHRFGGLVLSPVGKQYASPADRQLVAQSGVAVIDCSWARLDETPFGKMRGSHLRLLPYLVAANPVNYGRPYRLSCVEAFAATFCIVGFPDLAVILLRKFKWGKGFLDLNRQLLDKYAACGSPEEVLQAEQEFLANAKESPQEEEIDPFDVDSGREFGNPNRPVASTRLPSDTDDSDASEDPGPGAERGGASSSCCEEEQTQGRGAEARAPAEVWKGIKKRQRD

Target	log2 fold change
UniProt Q9P203 (peptide sequence: TGEEITDR, peptide start residue: 298)	0.376
NDOR1 (peptide sequence: LRELGSLVWELLDR, peptide start residue: 528) (UniProt Q9UHB4)	0.973
RNF181 (peptide sequence: YELPTDDDTYEEHRR, peptide start residue: 118) (UniProt Q9P0P0)	0.172
UniProt Q9P0J6 (peptide sequence: CKDCYLVK, peptide start residue: 76)	-0.261
VPS51 (peptide sequence: ISATLQDRHER, peptide start residue: 153) (UniProt Q9UID3)	0.218
POGK (peptide sequence: GMLILNGFR, peptide start residue: 466) (UniProt Q9P215)	-0.285
TUBE1 (peptide sequence: NMPVQDLPR, peptide start residue: 462) (UniProt Q9UJT0)	0.35
UniProt Q9UHH9 (peptide sequence: CQQSTSAVIGVR, peptide start residue: 244)	0.724
UniProt Q9UJK0 (peptide sequence: QYASPADR, peptide start residue: 104)	-0.875
